In patent publication US12516015B2 (AMALIVE LIMITED, priority 2009, dated 2026):
Like-named read-outs stand apart in the source and are kept apart here.

Conditions: Temp. Cycling

With `NCCC[C@H](N)C(=O)O.O=C(O)Cc1ccccc1` [L-ornithine phenyl acetate] the “Results (crystalline form)” value (Test 1, cyclohexanone) was “Form II”, the “Results (crystalline form)” value (Test 12, ethanol/acetone (50:50)) was “Form II” and the “Results (crystalline form)” value (Test 23, acetic acid) was “Form IV”. The “Results (crystalline form)” value (Test 34, 1-propanol) was “Form II”, the “Results (crystalline form)” value (Test 45, dimethylcarbonate) was “Form II” and the “Results (crystalline form)” value (Test 56, NMP) was “Form II”. The “Results (crystalline form)” value (Test 67, EtOAc/cyclohexane (1:2)) was “Form II”, the “Results (crystalline form)” value (Test 78, etOAc/toluene (1:2)) was “Form II” and the “Results (crystalline form)” value (Test 89, IPA/diisopropyl ether (1:2)) was “Form II”. For the same molecule, the “Results (crystalline form)” value (Test 100, DIPE) was “Form II”, the “Results (crystalline form)” value (Test 111, nitromethane/water (20%)) was “No Solid” and the “Results (crystalline form)” value (Test 122, acetone/water (20%)) was “No Solid”. The “Results (crystalline form)” value (Test 133, 1,4 dioxane/water (20%)) was “Form II”, the “Results (crystalline form)” value (Test 144, diethyl ether) was “Form II” and the “Results (crystalline form)” value (Test 155, ethylene glycol) was “Form II”. For the same molecule, the “Results (crystalline form)” value (Test 166, meOAc/water (20%)) was “No Solid”, the “Results (crystalline form)” value (Test 177, meOH/acetone (50:50)) was “Form II” and the “Results (crystalline form)” value (Test 188, DMF) was “Form II”. For the same molecule, the “Results (crystalline form of precipitate)” value (Test 199, solvent 2-butanol) was “Form II”, the “Results (crystalline form of precipitate)” value (Test 210, solvent cumene) was “Form II” and the “Results (crystalline form of precipitate)” value (Test 221, solvent ethyl formate) was “Form II”. For the same molecule, the “Results (crystalline form of precipitate)” value (Test 232, solvent isobutyl acetate) was “Form II”, the “Results (crystalline form of precipitate)” value (Test 243, solvent 3-methyl-1-butanol) was “Form II” and the “Results (crystalline form of precipitate)” value (Test 254, solvent anisole) was “Form II”. For the same molecule, the “Results (crystalline form of precipitate)” value (Test 265, solvent IPA/isopropyl acetate (1:2)) was “Form II”, the “Results (crystalline form of precipitate)” value (Test 276, solvent EtOH: 1% H20) was “Form II” and the “Results (crystalline form of precipitate)” value (Test 287, solvent EtOH: 3% H20) was “Form II”. The “Results (crystalline form of precipitate)” value (Test 298, solvent EtOH: 5% H20) was “Form II”, the “Results (crystalline form of precipitate)” value (Test 309, solvent IPA: 1% H20) was “Form II” and the “Results (crystalline form of precipitate)” value (Test 320, solvent IPA: 3% H20) was “Form II”. The “Results (crystalline form of precipitate)” value (Test 331, solvent IPA: 5% H20) was “Form II”, the “Results (crystalline form of precipitate)” value (Test 342, solvent ACN: 1% H20) was “Form II” and the “Results (crystalline form of precipitate)” value (Test 353, solvent ACN: 6% H20) was “Form II”. The “Results (crystalline form of precipitate)” value (Test 364, solvent ACN: 12% H20) was “No Solid”, the “Results (crystalline form of precipitate)” value (Test 375, solvent DMF: 5% H20) was “Form II” and the “Results (crystalline form of precipitate)” value (Test 386, solvent DMF: 15% H20) was “Form II”. For the same molecule, the “Results (crystalline form of precipitate)” value (Test 397, solvent DMF: 30% H20) was “Form II”, the “Results (crystalline form of precipitate)” value (Test 408, 1,4-dioxane: 1% H20) was “Form II” and the “Results (crystalline form of precipitate)” value (Test 419, 1,4-dioxane: 3% H20) was “Form II”. For the same molecule, the “Results (crystalline form of precipitate)” value (Test 430, 1,4-dioxane: 10% H20) was “Form II”, the “Results (crystalline form of precipitate)” value (Test 441, MeOH: 5% H20) was “Form II” and the “Results (crystalline form of precipitate)” value (Test 452, MeOH: 20% H20) was “No Solid”. For the same molecule, the “Results (crystalline form of precipitate)” value (Test 463, MeOH: 50% H20) was “Form II”, the “Results (crystalline form of precipitate)” value (Test 474, THF: 1% H20) was “Form II” and the “Results (crystalline form of precipitate)” value (Test 485, THF: 3% H20) was “Form II”. For the same molecule, the “Results (crystalline form of precipitate)” value (Test 496, THF: 5% H20) was “No Solid”, the “Results (crystalline form of precipitate)” value (Test 507, butan-1-ol: 1% H20) was “Form II” and the “Results (crystalline form of precipitate)” value (Test 518, butan-1-ol: 3% H20) was “Form II”. For the same molecule, the “Results (crystalline form of precipitate)” value (Test 529, butan-1-ol: 5% H20) was “Form II”, the “Results (crystalline form of precipitate)” value (Test 540, 1,4-dioxane) was “Form I” and the “Results (crystalline form of precipitate)” value (Test 543, 1-butanol) was “Form I”. The “Results (crystalline form of precipitate)” value (Test 546, ethanol) was “Form I”, the “Results (crystalline form of precipitate)” value (Test 549, acetone) was “Form I” and the “Results (crystalline form of precipitate)” value (Test 552, benzonitrile) was “Form I”. For the same molecule, the “Results (crystalline form of precipitate)” value (Test 555, cyclohexane) was “Form I”, the “Results (crystalline form of precipitate)” value (Test 558, DCM) was “Form I” and the “Results (crystalline form of precipitate)” value (Test 561, DMSO) was “Form I”. The “Results (crystalline form of precipitate)” value (Test 564, EtOAc) was “Form I”, the “Results (crystalline form of precipitate)” value (Test 567, Heptane) was “Form I” and the “Results (crystalline form of precipitate)” value (Test 570, IPA) was “Form I”. For the same molecule, the “Results (crystalline form of precipitate)” value (Test 573, IPA: Water (1%)) was “Form I”, the “Results (crystalline form of precipitate)” value (Test 576, MeCN) was “Form I” and the “Results (crystalline form of precipitate)” value (Test 579, MeCN: Water (1%)) was “Form I”. The “Results (crystalline form of precipitate)” value (Test 582, MEK) was “Form I”, the “Results (crystalline form of precipitate)” value (Test 585, MeOAc) was “Form I” and the “Results (crystalline form of precipitate)” value (Test 588, MeOH) was “Form I”. The “Results (crystalline form of precipitate)” value (Test 591, MIBK) was “Form I”, the “Results (crystalline form of precipitate)” value (Test 594, Nitromethane) was “Form I” and the “Results (crystalline form of precipitate)” value (Test 597, TBME) was “Form I”. For the same molecule, the “Results (crystalline form of precipitate)” value (Test 600, THF) was “Form I”, the “Results (crystalline form of precipitate)” value (Test 603, THF: water (1%)) was “Form I” and the “Results (crystalline form of precipitate)” value (Test 606, toluene) was “Form I”. For the same molecule, the “Results (crystalline form of precipitate)” value (Test 609, water) was “No Solid”.
